Reference: article PMC12042267, “Expanding the Family of Monosubstituted 15-Membered Pyridine-Based Macrocyclic Ligands for Mn(II) Complexation in the Context of MRI” (Inorganic Chemistry, 2025)
Where two headings read alike, the source gives them in different places.

Legend:
[1] = cited from earlier work
[2] = Simultaneous analysis of 17O NMR and 1H NMRD data (Solomon-Bloembergen-Morgan); type: physicochemical; settings: for CN (coordination number): first figure of CN/q; for q (hydration number): second figure of CN/q
Protocol: ^1H NMRD profiles on aqueous solutions of MnL2 (cMn2+ = 0.98 mM; pH = 7.22) and MnL3 (cMn2+ = 0.96 mM; pH = 7.20) were recorded at 25 and 37 °C on a SMARTracer Fast Field Cycling NMR relaxometer (Stelar; 0.00024–0.24 T, 0.01–10 MHz ^1H Larmor frequency) and a WP80 NMR electromagnet adapted to variable-field measurements (Bruker; 0.47–1.88 T, 20–80 MHz ^1H Larmor frequency). The temperature was maintained by a gas flow and monitored by a VTC91 temperature control unit based on previous calibration with a Pt resistance temperature probe.
Variable-temperature ^17O NMR measurements of aqueous solutions of MnL2 (cMnL = 3.70 mmol·kg^–1, pH = 7.03) and MnL3 (cMnL = 3.72 mmol·kg^–1, pH = 7.2) were performed on a Bruker Avance III 400 MHz spectrometer (9.4 T, 54.2 MHz) in the temperature range 5–75 °C. The temperature was calculated after calibration with ethylene glycol and […]. Acidified water (HClO4, pH = 3.3) was used as a diamagnetic reference. The ^17O transverse relaxation times (T2) were obtained by using the CPMG spin–echo technique. To eliminate susceptibility contributions to the chemical shift, the sample was in a glass sphere placed in a 10 mm NMR tube. To improve the sensitivity, ^17O-enriched water (11.10% H2^17O, Cortecnet) was added to the solution to yield approximately 1% ^17O enrichment.
The ^17O NMR and NMRD data have been analyzed according to the Solomon–Bloembergen–Morgan theory of paramagnetic relaxation.[3] The least-squares fit was performed using Visualizeur/Optimiseur running on a MATLAB 8.3.0 (R2014a) platform.
^1H NMRD profiles were recorded at 25 and 37 °C in the magnetic field range 0.01–80 MHz (Figure 6, bottom). The reduced transverse ^17O relaxation rates were simultaneously fitted with ^1H NMRD data according to the Solomon–Bloembergen–Morgan theory (equations are given in SI). The fitted parameters are summarized in Table 6 and compared to those for seven-coordinate Mn(II) complexes of L1 and 15-pyN3O2 ligands, as well as of [Mn(H2O)6]^2+.
The shape of the ^1H NMRD curves reflects typical low-molecular-weight complexes. The profiles display one dispersion between 1 and 10 MHz as has been previously described for other complexes except [Mn(H2O)6]^2+.[49],[50] The hydration number of MnL2 and MnL3 was assumed in both cases to be q = 1 for a total coordination number of CN = 7, based on the X-ray crystal structure. In aqueous solution, the chloride or the acetonitrile that coordinates to Mn(II) in the solid state will be replaced by one water molecule to complete the coordination sphere of Mn(II). As it was described by Gale et al.,[51] the ^17O T2 values can also give an estimate of hydration number, provided the 1/T2r vs temperature curve has a maximum. […]

[3] = Semiempirical estimation of hydration number from molecular weight and low field relaxivity; type: physicochemical; settings: from molecular weight and low field relaxivity (0.01 MHz)
[4] = second pair 7/1, at pH value above 8.0 ref 22

O.O=C([O-])CN1CCOCCN(CC(=O)[O-])Cc2cccc(n2)C1.[Mn+2] [Mn(3,9-OPC2A)]
CN (coordination number) ([1]; first figure of CN/q ref 26): 7
q (hydration number) ([1]; second figure of CN/q ref 26): 1

O.O=C([O-])CN1CCNCc2cccc(n2)CNCC1.[Mn+2] [[Mn(PC1A)(H2O)]^+]
CN (coordination number) ([1]; first figure of CN/q ref 20): 6
q (hydration number) ([1]; second figure of CN/q ref 20): 1

O.O=C([O-])CN1CCOCCOCCNCc2cccc(n2)C1.[Mn+2] [MnL1]
CN (coordination number) ([1]; first figure of CN/q ref 30): 7
q (hydration number) ([1]; second figure of CN/q ref 30): 1

O.O.[Mn+2].c1cc2nc(c1)CNCCOc1ccccc1OCCNC2 [Mn(15-pyN3O2Ph)]
CN (coordination number) ([1]; first figure of CN/q ref 29): 7
q (hydration number) ([1]; second figure of CN/q ref 29): 2

O.O.[Mn+2].c1cc2nc(c1)CNCCNCCNCCNC2 [Mn(15-pyN5)]
CN (coordination number) ([1]; first figure of CN/q ref 28): 7
q (hydration number) ([1]; second figure of CN/q ref 28): 2

O.[Mn+2].c1cc2nc(c1)CN(Cc1nc3ccccc3[nH]1)CCOCCOCCNC2 [MnL3]
CN (coordination number) [2]: 7
q (hydration number) [2]: 1
q estimated by semiempirical method [3]: 0.76

O.O=P([O-])([O-])CN1CCNCc2cccc(n2)CNCC1.[Mn+2] [[Mn(PC1P)(H2O)]]
CN (coordination number) ([1]; first figure of CN/q ref 20): 6
q (hydration number) ([1]; second figure of CN/q ref 20): 1

O.O=C([O-])CN1CCNCc2cccc(n2)CN(CC(=O)[O-])CC1.[Mn+2] [Mn(3,6-PC2A)]
CN (coordination number) ([1]; first figure of CN/q ref 21): 7
q (hydration number) ([1]; second figure of CN/q ref 21): 1

O.O=C([O-])CN1CCN(Cc2ccc(-c3ccccc3)cc2)CCN(CC(=O)[O-])Cc2cccc(n2)C1.[Mn+2] [[Mn(PC2A-BP)(H2O)]]
CN (coordination number) ([1]; first figure of CN/q ref 29): 7
q (hydration number) ([1]; second figure of CN/q ref 29): 1

NCCN1CCN(CC(=O)[O-])Cc2cccc(n2)CN(CC(=O)[O-])CC1.O.[Mn+2] [[Mn(PC2A-EA)(H2O)]]
CN (coordination number) ([1]; first pair 7/0 ref 22): 7
q (hydration number) ([1]; first pair 7/0 ref 22): 0
CN (coordination number) [1, 4]: 7
q (hydration number) [1, 4]: 1

O.[Mn+2].c1ccc(CN2CCOCCOCCNCc3cccc(n3)C2)nc1 [MnL2]
CN (coordination number) [2]: 7
q (hydration number) [2]: 1
q estimated by semiempirical method [3]: 0.73

O.O.[Mn+2].c1cc2nc(c1)CNCCOCCOCCNC2 [Mn(15-pyN3O2)]
CN (coordination number) ([1]; first figure of CN/q ref 28): 7
q (hydration number) ([1]; second figure of CN/q ref 28): 2

O.O=C([O-])CN1CCNCCN(CC(=O)[O-])Cc2cccc(n2)C1.[Mn+2] [Mn(3,9-PC2A)]
CN (coordination number) ([1]; first figure of CN/q ref 21): 7
q (hydration number) ([1]; second figure of CN/q ref 21): 1
